Publication doi:10.1101/032243

Target: T1, DISC1 (as used in the co-IP of Fig. S3D) (UniProt Q811T9)
T1 sequence: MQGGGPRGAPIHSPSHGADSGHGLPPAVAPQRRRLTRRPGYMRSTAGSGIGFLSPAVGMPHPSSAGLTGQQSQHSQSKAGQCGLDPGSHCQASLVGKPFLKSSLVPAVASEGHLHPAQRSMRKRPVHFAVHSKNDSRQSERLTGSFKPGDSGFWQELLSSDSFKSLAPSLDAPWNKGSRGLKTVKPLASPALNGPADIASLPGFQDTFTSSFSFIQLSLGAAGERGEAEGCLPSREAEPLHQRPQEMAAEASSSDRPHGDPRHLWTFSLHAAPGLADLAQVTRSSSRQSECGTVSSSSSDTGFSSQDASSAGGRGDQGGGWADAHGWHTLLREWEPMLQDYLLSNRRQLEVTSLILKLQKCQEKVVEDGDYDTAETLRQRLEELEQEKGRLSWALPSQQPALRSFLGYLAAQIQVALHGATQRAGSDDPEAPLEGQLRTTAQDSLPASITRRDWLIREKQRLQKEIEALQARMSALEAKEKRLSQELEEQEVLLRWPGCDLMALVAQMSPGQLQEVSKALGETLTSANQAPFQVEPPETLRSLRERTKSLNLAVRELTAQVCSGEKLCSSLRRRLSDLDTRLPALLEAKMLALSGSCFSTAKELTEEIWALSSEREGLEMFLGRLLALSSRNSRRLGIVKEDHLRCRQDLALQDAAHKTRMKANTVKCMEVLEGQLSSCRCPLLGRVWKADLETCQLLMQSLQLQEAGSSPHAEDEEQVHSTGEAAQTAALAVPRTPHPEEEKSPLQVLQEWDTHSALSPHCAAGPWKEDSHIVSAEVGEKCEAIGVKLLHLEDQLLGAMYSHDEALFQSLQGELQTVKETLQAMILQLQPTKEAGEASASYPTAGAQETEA
Assay: co-IP

binding | Substance
no binding | MEK
no binding | ERK

Results are given in words; binding and its absence hold for the method and conditions named. Binding seen in cells or lysates may run through a third protein.
